Reference: patent US5736120 (dated 1998)

Tests used:
[1] = general procedure: Fmoc solid-phase peptide synthesis; Fmoc-Arg-HMP resin; dicyclohexylcarbodiimide/hydroxybenzotriazole; details: whole synthesis, scale of the general procedure 0.2-0.3 mmole
[2] = general procedure: Fmoc solid-phase peptide synthesis; preloaded Fmoc-Met-Rink amide resin; Rink amide resin for C-terminus amides; dicyclohexylcarbodiimide/hydroxybenzotriazole; details: whole synthesis, scale of the general procedure 0.2-0.3 mmole

Substance: Compound 2-Tyr-Phe-Lys-Ala-Cha-Cha-Leu-D-Ala-Arg-OH
- final purity (method not given) [1]: ≥99%

Substance: DTPA-Lys-Pro-Lys-Pro-Gln-Gln-Phe-Phe-Gly-Leu-Met-NH2
- final purity (method not given) [2]: ≥99%
